Test results taken from paper PMC7950214.

Sequences of proteins named here, by UniProt entry; tags and fusion partners are left off.
UniProt Q38931: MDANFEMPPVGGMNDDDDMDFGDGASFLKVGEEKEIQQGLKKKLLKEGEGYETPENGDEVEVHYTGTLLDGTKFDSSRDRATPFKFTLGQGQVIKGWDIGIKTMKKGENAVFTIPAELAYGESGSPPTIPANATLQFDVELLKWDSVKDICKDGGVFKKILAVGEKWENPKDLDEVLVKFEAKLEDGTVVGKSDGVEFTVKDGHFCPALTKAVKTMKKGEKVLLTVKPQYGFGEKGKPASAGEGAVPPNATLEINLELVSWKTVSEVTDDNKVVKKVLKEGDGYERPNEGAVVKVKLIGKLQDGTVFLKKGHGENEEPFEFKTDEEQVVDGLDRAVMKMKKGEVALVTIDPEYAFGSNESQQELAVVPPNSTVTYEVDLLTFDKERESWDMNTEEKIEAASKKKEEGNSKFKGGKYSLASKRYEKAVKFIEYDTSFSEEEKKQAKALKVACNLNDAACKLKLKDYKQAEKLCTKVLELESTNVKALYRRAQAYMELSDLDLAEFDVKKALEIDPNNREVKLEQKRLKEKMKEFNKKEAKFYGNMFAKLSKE

Legend:
[1] = target: T1, KAI2-GFP (Arabidopsis thaliana) (UniProt Q9SZU7); experiment: affinity purification with mass spectrometry; single-step purification on GFP-Trap-A of D14-GFP or KAI2-GFP from Arabidopsis PSB-D cell culture extracts; cells treated 15 min with 1 μM rac-GR24; three replicates; label-free quantification, KAI2 compared with D14
T1 sequence: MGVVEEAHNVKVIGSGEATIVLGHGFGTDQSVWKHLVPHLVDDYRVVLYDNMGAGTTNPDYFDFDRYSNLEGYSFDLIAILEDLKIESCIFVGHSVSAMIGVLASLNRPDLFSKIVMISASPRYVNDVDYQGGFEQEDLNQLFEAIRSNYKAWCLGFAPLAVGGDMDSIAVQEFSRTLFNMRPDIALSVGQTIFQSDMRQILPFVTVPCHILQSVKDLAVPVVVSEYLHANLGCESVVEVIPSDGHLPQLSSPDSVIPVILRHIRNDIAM

[2] = target: T2, GS-MAX2ΔFBOX (MAX2 without its first 53 amino acids, N-terminal GS tag) (Arabidopsis thaliana) (UniProt Q9SIM9); experiment: affinity purification with mass spectrometry; tandem affinity purification (IgG-Sepharose, AcTEV, streptavidin beads) of the N-terminally GS-tagged bait from Arabidopsis PSB-D cell culture extracts; cells treated 5 h with 0.01% acetone (mock) or 1 μM rac-GR24; two replicates each; LC-MS/MS; background proteins filtered out
T2 sequence: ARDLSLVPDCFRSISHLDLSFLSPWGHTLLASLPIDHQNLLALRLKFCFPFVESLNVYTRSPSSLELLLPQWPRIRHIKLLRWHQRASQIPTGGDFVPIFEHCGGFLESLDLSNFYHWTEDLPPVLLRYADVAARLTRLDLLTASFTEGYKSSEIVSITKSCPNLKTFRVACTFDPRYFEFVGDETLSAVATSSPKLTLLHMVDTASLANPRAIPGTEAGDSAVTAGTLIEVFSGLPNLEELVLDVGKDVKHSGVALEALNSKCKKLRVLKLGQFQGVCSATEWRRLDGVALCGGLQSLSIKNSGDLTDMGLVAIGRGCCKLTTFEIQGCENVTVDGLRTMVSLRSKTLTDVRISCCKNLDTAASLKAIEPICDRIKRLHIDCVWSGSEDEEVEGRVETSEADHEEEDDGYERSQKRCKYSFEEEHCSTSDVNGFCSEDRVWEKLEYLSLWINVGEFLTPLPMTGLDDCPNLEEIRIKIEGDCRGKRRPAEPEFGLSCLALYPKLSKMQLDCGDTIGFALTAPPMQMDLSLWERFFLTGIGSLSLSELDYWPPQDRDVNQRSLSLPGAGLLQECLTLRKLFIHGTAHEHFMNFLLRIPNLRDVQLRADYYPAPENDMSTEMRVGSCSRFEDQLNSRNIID

[3] = target: T3, GS-MAX2 (MORE AXILLARY GROWTH 2, N-terminal GS tag) (Arabidopsis thaliana) (UniProt Q9SIM9); experiment: as above
T3 sequence: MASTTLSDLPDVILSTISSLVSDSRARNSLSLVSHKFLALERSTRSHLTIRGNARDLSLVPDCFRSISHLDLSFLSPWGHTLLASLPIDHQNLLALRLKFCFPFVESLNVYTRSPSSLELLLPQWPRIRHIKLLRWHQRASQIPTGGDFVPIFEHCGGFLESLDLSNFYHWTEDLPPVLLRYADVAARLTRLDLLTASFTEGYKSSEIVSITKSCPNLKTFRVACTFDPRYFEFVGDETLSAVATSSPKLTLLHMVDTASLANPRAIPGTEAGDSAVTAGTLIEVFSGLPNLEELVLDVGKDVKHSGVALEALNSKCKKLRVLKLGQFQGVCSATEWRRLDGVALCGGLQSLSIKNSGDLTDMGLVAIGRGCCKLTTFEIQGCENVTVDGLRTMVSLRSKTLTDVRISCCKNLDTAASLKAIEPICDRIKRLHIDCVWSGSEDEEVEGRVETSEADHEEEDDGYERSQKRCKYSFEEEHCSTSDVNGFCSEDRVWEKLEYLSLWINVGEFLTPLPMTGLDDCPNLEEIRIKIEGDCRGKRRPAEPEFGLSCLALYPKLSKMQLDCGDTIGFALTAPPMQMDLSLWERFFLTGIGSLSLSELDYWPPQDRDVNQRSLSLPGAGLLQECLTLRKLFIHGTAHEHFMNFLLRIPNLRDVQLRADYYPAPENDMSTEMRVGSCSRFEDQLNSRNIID

[4] = target: T3, GS-MAX2 (MORE AXILLARY GROWTH 2, N-terminal GS tag) (Arabidopsis thaliana); experiment: condition: only cells treated with 1 μM rac-GR24 for 5 h; affinity purification with mass spectrometry; as a1, only the samples of cells treated 5 h with 1 μM rac-GR24
[5] = target: T4, GS-MAX2 (MORE AXILLARY GROWTH 2, N-terminal GS tag) (Arabidopsis thaliana), Q9SIM9; experiment: affinity purification with mass spectrometry; tandem affinity purification (IgG-Sepharose, AcTEV, streptavidin beads) of the N-terminally GS-tagged bait from Arabidopsis PSB-D cell culture extracts; cells treated 5 h with 0.01% acetone (mock) or 1 μM rac-GR24; two replicates each; LC-MS/MS; background proteins filtered out; conditions: remark: other sources report otherwise
T4 chain: T3 sequence

[6] = target: T5, D14-GFP (Arabidopsis thaliana), Q9SQR3; experiment: affinity purification with mass spectrometry; single-step purification on GFP-Trap-A of D14-GFP or KAI2-GFP from Arabidopsis PSB-D cell culture extracts; cells treated 15 min with 1 μM rac-GR24; three replicates; label-free quantification, KAI2 compared with D14; conditions: remark: other sources report otherwise
T5 chain: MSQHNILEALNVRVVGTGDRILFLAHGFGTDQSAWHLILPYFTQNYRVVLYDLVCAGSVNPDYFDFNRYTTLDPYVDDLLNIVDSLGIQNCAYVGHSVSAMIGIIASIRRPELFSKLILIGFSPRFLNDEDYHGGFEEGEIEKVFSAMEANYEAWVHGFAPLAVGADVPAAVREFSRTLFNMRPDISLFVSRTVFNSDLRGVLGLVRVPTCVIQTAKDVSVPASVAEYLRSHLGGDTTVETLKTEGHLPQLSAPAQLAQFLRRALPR

B1: DWARF 14 (D14), endogenous, Q9SQR3 1-267 (receptor)
chain: T5 chain
binding [5]: no binding

B3: MORE AXILLARY GROWTH 2 (MAX2), endogenous (protein, UniProt Q9SIM9 1-693)
chain: T3 sequence
binding [1]: no binding

Now from value to molecule:

binding [1]: binds
binding [2]: binds
binding [3]: no binding
Molecule: ROF1 (from UniProt Q38931 1-551)

binding [2]: binds
binding [3]: binds
binding [4]: no binding
Molecule: PHYTOCHROME-ASSOCIATED PROTEIN PHOSPHATASE 5 (PAPP5), endogenous (enzyme)

binding [6]: no binding
B2: MORE AXILLARY GROWTH 2 (MAX2), endogenous, Q9SIM9 1-693 (protein)
chain: T3 sequence

No constants are given. Whether binding was seen depends on the method and setting. In cells and extracts the contact can be indirect. These calls come from enrichment with a bait or labelling near it, and not all partners need be listed. For part of these data: No binding means not detected with the bait. Tags and fused reporters may be left off the sequences shown. One block for each molecule: values may come before it.
